# Test results: US20260021138A1, “EXTRACELLULAR VESICLES AND PARTICLES FROM IMMUNE CELLS FOR PROVIDING ANTICANCER ACTIVITY” (LIETUVOS SVEIKATOS MOKSLU UNIVERSITETAS, priority 2022, published 2026)
# At least one structure is not confirmed: it was looked up by name or label, or the drawing left a doubt.
# Test system: HROG-36 GBM 3D spheroids
# Assay: GBM cell migration area in 3D cell cultures
# Assay type: cell-based, human
# Settings: at higher concentrations
# Description: For EV internalisation assessment in 2D GBM cell cultures, AF555-labelled EV solutions in PBS were applied to mixed glial and microglial cultures making a final concentration of 50 μg/mL of total EV protein. The cells were visualised by a fluorescent microscope Zeiss Axio Observer.Z1 (Carl Zeiss, Jena, Germany). For 3D GBM cell cultures, U-bottom 96-well plates were coated with a thin layer of 2% agarose prior to cell seeding. The cells were seeded at a density of 10000 per well, and the plate was centrifuged at 280×g for 7 min. […] The spheroid diameter was monitored under a light microscope on each day of culture (FIG. 17). […]
# For EV efficiency on GBM cell migration in 3D GBM cell cultures, microscopic images of the cultures were taken at the start and at the end (72 hours), and the area covered by cells was calculated. […] Using the ImageJ software package, the area occupied by migrating spheroid cells was assessed, and the area of the spheroid at the initial time point was subtracted, as indicated in FIG. 24C. Representative images before and after treatment with U-937-derived macrophage and HMC-3 microglial EVs with and without DOX or TMZ and the same amount of free DOX are presented in FIG. 20-23, and quantitative assessment results—in FIG. 24.
smiles,measurement,value
"Cn1nnc2c(C(N)=O)ncn2c1=O [TMZ, temozolomide]","GBM migration suppression, free drug versus loaded EVs",more efficient
